Experimental findings from the supplement of paper PMC10849652 are described below.

Amino acid sequences for entries named in this document (tags omitted). A change or cut given only in a name is not applied to a line headed by its entry.
UniProt P16989, whole entry, looked up: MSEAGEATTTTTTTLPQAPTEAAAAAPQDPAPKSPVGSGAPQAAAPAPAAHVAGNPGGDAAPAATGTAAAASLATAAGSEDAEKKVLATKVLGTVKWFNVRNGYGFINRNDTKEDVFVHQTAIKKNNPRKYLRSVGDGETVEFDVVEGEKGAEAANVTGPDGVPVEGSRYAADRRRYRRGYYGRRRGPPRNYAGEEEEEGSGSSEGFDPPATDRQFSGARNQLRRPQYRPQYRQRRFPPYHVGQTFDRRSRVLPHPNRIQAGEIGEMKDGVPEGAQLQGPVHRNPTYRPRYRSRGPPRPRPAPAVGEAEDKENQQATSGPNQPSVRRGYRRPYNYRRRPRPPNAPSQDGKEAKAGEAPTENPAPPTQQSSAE
UniProt Q9NYG2: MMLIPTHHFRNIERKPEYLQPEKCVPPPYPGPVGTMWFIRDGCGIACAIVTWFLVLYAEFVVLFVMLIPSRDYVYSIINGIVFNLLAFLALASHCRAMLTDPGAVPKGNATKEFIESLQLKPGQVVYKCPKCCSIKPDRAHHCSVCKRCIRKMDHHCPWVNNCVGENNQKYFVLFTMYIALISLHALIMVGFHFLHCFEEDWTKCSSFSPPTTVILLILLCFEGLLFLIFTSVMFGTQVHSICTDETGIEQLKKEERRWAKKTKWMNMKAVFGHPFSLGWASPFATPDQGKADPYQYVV
UniProt Q9UPT8: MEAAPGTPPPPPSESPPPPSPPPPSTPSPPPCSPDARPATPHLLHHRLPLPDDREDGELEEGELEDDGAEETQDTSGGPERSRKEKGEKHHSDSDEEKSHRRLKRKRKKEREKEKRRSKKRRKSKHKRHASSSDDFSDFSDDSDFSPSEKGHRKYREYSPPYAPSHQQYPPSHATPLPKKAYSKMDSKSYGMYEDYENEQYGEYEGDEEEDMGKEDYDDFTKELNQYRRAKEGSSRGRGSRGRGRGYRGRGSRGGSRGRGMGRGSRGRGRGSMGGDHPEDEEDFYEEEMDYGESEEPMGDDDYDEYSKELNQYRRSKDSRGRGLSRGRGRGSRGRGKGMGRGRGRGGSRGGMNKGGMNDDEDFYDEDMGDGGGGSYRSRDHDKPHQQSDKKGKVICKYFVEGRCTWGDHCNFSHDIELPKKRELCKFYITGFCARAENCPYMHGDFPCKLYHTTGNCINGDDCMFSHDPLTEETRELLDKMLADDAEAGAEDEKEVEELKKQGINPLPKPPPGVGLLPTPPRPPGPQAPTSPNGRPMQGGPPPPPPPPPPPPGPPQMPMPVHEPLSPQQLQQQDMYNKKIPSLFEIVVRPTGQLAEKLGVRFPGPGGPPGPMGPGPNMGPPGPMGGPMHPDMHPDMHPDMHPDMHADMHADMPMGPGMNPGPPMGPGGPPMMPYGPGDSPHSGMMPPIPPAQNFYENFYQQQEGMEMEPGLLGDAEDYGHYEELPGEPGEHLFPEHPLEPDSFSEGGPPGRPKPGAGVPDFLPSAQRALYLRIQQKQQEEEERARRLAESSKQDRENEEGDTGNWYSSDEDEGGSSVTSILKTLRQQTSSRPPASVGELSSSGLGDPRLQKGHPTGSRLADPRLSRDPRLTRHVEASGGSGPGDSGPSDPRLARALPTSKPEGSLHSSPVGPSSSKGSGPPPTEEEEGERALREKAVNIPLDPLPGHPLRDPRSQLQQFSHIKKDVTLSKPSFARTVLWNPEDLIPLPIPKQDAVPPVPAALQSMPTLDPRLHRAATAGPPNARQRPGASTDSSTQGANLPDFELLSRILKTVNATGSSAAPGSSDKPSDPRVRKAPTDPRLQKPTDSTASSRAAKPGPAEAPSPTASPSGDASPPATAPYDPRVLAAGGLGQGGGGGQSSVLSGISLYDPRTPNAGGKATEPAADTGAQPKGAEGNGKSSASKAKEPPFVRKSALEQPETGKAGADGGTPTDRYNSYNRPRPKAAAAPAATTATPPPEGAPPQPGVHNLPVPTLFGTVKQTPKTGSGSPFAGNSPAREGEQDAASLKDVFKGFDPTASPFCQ
UniProt Q8WU90: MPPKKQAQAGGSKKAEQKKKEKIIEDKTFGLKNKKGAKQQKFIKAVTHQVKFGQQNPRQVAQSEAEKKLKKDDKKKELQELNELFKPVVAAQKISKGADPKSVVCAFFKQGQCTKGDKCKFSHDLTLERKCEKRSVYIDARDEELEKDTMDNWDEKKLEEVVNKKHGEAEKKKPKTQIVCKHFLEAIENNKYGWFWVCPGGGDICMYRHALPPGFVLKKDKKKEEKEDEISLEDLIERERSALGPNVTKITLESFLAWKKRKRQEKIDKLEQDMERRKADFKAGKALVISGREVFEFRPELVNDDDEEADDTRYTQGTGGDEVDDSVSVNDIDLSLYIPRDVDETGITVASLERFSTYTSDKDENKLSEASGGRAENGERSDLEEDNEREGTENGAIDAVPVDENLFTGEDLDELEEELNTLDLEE
UniProt Q9H6S0: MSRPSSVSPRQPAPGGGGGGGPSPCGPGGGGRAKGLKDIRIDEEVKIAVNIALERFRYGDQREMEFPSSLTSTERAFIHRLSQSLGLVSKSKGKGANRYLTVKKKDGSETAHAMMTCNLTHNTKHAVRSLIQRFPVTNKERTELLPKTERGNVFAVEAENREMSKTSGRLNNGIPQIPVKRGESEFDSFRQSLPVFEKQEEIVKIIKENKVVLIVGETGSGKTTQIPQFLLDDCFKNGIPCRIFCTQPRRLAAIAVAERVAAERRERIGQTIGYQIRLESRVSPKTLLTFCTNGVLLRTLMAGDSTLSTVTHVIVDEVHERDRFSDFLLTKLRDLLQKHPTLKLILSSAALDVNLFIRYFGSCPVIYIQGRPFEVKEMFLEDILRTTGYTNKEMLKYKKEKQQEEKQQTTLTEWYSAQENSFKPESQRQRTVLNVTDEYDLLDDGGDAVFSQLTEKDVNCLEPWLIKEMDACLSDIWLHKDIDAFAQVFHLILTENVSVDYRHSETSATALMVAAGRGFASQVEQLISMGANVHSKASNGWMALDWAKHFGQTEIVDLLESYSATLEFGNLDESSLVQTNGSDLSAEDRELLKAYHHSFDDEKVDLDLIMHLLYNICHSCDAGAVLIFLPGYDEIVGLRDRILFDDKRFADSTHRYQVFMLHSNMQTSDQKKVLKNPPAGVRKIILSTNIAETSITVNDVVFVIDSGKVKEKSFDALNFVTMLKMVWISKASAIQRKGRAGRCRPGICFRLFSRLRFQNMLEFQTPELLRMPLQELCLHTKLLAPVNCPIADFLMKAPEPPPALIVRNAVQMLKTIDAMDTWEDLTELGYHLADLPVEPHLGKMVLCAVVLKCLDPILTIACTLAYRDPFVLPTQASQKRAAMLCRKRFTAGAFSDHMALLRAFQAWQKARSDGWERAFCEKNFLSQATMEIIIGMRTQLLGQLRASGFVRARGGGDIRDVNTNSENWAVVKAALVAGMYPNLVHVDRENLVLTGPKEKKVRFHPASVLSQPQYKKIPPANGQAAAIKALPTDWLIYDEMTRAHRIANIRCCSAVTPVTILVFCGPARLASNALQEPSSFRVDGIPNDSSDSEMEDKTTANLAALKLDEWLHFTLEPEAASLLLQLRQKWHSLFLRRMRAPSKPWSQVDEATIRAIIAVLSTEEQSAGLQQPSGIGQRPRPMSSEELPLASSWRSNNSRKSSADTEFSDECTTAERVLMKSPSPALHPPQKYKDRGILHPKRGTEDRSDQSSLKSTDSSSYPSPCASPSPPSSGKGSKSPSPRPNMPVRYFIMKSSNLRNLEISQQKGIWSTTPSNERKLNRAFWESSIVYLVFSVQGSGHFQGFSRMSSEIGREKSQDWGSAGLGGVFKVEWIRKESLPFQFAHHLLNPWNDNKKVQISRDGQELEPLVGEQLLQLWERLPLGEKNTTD
UniProt O96006: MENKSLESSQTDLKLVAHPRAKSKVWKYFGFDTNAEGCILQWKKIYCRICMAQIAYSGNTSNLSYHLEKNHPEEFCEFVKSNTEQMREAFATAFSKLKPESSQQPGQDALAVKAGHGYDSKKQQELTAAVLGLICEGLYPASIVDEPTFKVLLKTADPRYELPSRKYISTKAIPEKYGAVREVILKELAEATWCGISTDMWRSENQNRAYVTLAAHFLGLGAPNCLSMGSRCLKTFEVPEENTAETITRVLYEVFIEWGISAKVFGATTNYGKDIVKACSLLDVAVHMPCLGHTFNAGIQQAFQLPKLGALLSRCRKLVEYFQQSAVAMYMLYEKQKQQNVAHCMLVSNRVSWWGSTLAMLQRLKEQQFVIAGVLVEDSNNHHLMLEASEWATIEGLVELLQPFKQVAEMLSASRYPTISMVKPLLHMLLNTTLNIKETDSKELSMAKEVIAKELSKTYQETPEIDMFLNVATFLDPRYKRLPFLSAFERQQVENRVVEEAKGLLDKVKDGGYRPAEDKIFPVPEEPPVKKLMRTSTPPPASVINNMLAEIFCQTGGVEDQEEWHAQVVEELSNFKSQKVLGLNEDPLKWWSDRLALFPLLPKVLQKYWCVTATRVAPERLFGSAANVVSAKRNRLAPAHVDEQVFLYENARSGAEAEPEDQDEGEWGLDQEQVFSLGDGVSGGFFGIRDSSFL
UniProt Q86U90: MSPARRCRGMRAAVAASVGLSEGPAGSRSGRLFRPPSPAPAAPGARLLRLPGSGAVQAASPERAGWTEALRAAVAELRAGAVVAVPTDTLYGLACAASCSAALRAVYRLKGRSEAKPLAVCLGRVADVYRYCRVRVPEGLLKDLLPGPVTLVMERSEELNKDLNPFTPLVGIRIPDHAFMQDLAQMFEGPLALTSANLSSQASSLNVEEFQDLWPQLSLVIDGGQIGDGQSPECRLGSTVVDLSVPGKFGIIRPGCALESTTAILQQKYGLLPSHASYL
UniProt Q9Y2Z4: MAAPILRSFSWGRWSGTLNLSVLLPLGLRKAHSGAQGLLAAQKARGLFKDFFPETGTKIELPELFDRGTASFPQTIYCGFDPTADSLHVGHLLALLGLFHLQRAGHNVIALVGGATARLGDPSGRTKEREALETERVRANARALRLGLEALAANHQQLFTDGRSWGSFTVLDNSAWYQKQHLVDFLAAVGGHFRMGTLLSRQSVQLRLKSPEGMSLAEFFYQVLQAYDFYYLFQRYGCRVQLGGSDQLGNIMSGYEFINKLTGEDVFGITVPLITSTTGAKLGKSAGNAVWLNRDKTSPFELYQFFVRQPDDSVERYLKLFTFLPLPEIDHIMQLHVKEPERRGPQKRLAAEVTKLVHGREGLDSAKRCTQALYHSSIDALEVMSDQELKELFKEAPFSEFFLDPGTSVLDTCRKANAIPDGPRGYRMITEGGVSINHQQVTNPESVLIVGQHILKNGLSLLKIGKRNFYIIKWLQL
UniProt Q9UGR2: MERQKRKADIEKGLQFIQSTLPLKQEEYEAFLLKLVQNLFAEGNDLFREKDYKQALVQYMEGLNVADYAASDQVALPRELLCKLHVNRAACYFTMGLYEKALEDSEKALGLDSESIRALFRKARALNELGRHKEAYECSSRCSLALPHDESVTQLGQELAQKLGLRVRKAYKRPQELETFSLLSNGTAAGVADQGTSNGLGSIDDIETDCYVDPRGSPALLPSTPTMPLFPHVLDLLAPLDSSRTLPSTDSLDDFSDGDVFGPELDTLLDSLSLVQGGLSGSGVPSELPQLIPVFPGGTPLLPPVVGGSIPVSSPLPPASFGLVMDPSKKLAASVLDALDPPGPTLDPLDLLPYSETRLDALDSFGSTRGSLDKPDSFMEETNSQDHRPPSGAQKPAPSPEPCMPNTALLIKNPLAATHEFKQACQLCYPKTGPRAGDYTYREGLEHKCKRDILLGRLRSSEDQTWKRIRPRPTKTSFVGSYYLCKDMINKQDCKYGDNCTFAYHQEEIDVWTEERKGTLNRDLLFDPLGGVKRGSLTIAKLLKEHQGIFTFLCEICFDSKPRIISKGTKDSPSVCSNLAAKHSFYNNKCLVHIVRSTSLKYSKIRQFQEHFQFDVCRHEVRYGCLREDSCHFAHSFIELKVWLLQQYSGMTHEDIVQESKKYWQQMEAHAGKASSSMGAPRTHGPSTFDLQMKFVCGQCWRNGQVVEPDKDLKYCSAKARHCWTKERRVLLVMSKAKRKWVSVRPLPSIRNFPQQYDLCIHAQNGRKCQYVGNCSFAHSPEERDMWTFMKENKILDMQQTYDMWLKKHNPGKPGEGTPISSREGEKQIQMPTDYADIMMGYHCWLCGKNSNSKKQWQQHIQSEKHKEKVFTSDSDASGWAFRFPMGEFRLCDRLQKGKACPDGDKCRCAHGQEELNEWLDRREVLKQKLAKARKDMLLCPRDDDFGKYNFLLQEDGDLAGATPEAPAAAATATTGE
UniProt A8MPS7: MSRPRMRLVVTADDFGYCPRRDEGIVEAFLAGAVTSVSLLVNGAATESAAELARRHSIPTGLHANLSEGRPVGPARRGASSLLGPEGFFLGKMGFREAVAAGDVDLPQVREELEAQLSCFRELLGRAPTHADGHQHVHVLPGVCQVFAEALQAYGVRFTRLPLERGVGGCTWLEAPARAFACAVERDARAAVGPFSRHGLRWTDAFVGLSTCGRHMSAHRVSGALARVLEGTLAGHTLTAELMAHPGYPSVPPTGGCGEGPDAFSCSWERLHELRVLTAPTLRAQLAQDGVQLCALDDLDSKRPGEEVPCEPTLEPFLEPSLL

The other results are listed elsewhere or left out.

Compound in one assay: Cn1cncc1[C@@](N)(c1ccc(Cl)cc1)c1ccc2c(c1)c(-c1cccc(Cl)c1)cc(=O)n2C [tipifarnib]
The assay is described as follows: log2 fold change, soluble protein after heating vs DMSO (PISA); higher = thermal stabilisation; K562 lysate, 10 uM; active = over 0.2 and 3.5 SD of the protein, either way, in both replicates (recomputed). In outline:
(§1)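 Log-two fold change in thermal stability relative to solvent controls is reported from duplicates. For each sample, crude K562 extract from dounce-homogenised pellets in PBS pH 7.4 with 1 mM MgCl2, at 1 mg/mL protein, was treated with 10 μM compound for 30 min. Aliquots heated for 3 min across 48°C-58°C were pooled, brought to 0.5% NP-40 at 4°C and cleared at 21,000xg for 90 min. The supernatant was quantified by TMTpro 16plex LC-MS/MS with channel sums equalised.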
With YBX3 (UniProt P16989), the log2 fold change was inactive: -0.014.
Consider ZBED8 (UniProt Q8IZ13), for which the log2 fold change was inactive: 0.035.
XPO7 (UniProt Q9UIA9): the log2 fold change is inactive: -0.004.
With YIPF3 (UniProt Q9GZM5), the log2 fold change is inactive: -0.003.
With XPO6 (UniProt Q96QU8), the log2 fold change was inactive: -0.018.
Consider ZDHHC3 isoform 2 (UniProt Q9NYG2), for which the log2 fold change was inactive: 0.025.
Consider ZFPM1 (UniProt Q8IX07), for which the log2 fold change is inactive: 0.044.
The same measure, in the same setting: the result for YES1 (UniProt P07947) reads inactive: -0.157; that for ZFAND2B (UniProt Q8WV99), inactive: -0.003.
As to XPO1 (UniProt O14980), the log2 fold change was inactive: -0.009.
With ZCCHC3 (UniProt Q9NUD5), the log2 fold change was inactive: -0.013.
Consider YIPF5 isoform 3 (UniProt Q969M3), for which the log2 fold change was inactive: -0.035.
ZC3H18 (UniProt E7ERS3): the log2 fold change is inactive: -0.042.
Regarding YBX3 isoform 2 (UniProt P16989), the log2 fold change was inactive: 0.041.
With ZC3H4 (UniProt Q9UPT8), the log2 fold change was inactive: 0.003.
Same read-out and setting: for YJU2 (UniProt Q9BW85) the value was inactive: 0.007.
Take ZC3H15 (UniProt Q8WU90): the log2 fold change was inactive: -0.012.
Take YIPF6 (UniProt Q96EC8): the log2 fold change was inactive: -0.065.
On the same count and under the same terms, for XRCC1 (UniProt P18887) the value was inactive: 0.023.
With ZFR (UniProt Q96KR1), the log2 fold change is inactive: 0.001.
YME1L1 (UniProt Q96TA2): the log2 fold change is inactive: -0.019.
Still for that read-out and setting: the result for YTHDC2 (UniProt Q9H6S0) reads inactive: 0.022.
In the case of ZFAND6 (UniProt Q6FIF0), the log2 fold change was inactive: 0.099.
Consider ZER1 (UniProt Q7Z7L7), for which the log2 fold change is inactive: -0.023.
In the case of XPNPEP3 (UniProt Q9NQH7), the log2 fold change is inactive: 0.083.
Consider ZBED1 (UniProt O96006), for which the log2 fold change was inactive: -0.017.
Turning to XPOT (UniProt O43592), the log2 fold change is inactive: 0.005.
YRDC (UniProt Q86U90): the log2 fold change was inactive: 0.008.
On the same count and under the same terms, the result for YY1 (UniProt P25490) reads inactive: -0.01; that for ZGPAT (UniProt Q8N5A5), inactive: 0.023.
For the target XRCC6 (UniProt P12956), the log2 fold change is inactive: -0.01.
As to YKT6 (UniProt O15498), the log2 fold change is inactive: 0.007.
The same measure, in the same setting: for YARS2 (UniProt Q9Y2Z4) the value was inactive: -0.054; for ZC3H8 (UniProt Q8N5P1), inactive: -0.007.
Consider ZCCHC8 (UniProt Q6NZY4), for which the log2 fold change is inactive: 0.005.
In the case of YLPM1 (UniProt P49750), the log2 fold change is inactive: -0.011.
Take ZC3H7B (UniProt Q9UGR2): the log2 fold change was inactive: 0.005.
On to YIPF4 (UniProt Q9BSR8), for which the log2 fold change was inactive: -0.017.
Take YDJC (UniProt A8MPS7): the log2 fold change is inactive: -0.045.
Turning to ZBTB21 (UniProt Q9ULJ3), the log2 fold change was inactive: 0.015.

Compound in a further assay: NC(=O)Nc1cc(-c2cccc(F)c2)sc1C(=O)N[C@H]1CCCNC1
Described as above. The procedure, abridged: as §1
Consider YBX3 (UniProt P16989), for which the log2 fold change was inactive: -0.008.
On to ZBED8 (UniProt Q8IZ13), for which the log2 fold change was inactive: 0.056.
Consider XPO7 (UniProt Q9UIA9), for which the log2 fold change is inactive: -0.004.
Turning to YIPF3 (UniProt Q9GZM5), the log2 fold change was inactive: 0.025.
With XPO6 (UniProt Q96QU8), the log2 fold change is inactive: 0.078.
As to ZDHHC3 isoform 2 (UniProt Q9NYG2), the log2 fold change is inactive: 0.063.
Take ZFPM1 (UniProt Q8IX07): the log2 fold change is inactive: 0.034.
In the case of YES1 (UniProt P07947), the log2 fold change was active: 0.589.
As for ZFAND2B (UniProt Q8WV99), the log2 fold change is inactive: -0.1.
For XPO1 (UniProt O14980), the log2 fold change is inactive: 0.021.
With ZCCHC3 (UniProt Q9NUD5), the log2 fold change is inactive: 0.014.
Consider YIPF5 isoform 3 (UniProt Q969M3), for which the log2 fold change is inactive: -0.06.
On the same count and under the same terms, the result for ZC3H18 (UniProt E7ERS3) reads inactive: -0.002; that for YBX3 isoform 2 (UniProt P16989), inactive: -0.082.
As for ZC3H4 (UniProt Q9UPT8), the log2 fold change is inactive: 0.014.
Regarding YJU2 (UniProt Q9BW85), the log2 fold change was inactive: -0.034.
The same measure, in the same setting: the result for ZC3H15 (UniProt Q8WU90) reads inactive: -0.021.
Take YIPF6 (UniProt Q96EC8): the log2 fold change was inactive: -0.014.
XRCC1 (UniProt P18887): the log2 fold change was inactive: 0.002.
Regarding ZFR (UniProt Q96KR1), the log2 fold change is inactive: -0.006.
Still for that read-out and setting: for YME1L1 (UniProt Q96TA2) the value was inactive: 0.016.
The same measure, in the same setting: for YTHDC2 (UniProt Q9H6S0) the value was inactive: 0.06; for ZFAND6 (UniProt Q6FIF0), inactive: 0.031; for ZER1 (UniProt Q7Z7L7), inactive: 0.244.
In the case of XPNPEP3 (UniProt Q9NQH7), the log2 fold change is inactive: 0.02.
ZBED1 (UniProt O96006): the log2 fold change was inactive: 0.055.
As to XPOT (UniProt O43592), the log2 fold change was inactive: 0.037.
In the case of YRDC (UniProt Q86U90), the log2 fold change is inactive: -0.004.
Consider YY1 (UniProt P25490), for which the log2 fold change was inactive: -0.017.
For the target ZGPAT (UniProt Q8N5A5), the log2 fold change was inactive: -0.034.
XRCC6 (UniProt P12956): the log2 fold change is inactive: 0.013.
The same measure, in the same setting: for YKT6 (UniProt O15498) the value was inactive: -0.016; for YARS2 (UniProt Q9Y2Z4), inactive: 0.031; for ZC3H8 (UniProt Q8N5P1), inactive: -0.004.
For the target ZCCHC8 (UniProt Q6NZY4), the log2 fold change was inactive: 0.007.
In the case of YLPM1 (UniProt P49750), the log2 fold change is inactive: 0.033.
Take ZC3H7B (UniProt Q9UGR2): the log2 fold change is inactive: 0.057.
With YIPF4 (UniProt Q9BSR8), the log2 fold change was inactive: 0.01.
Turning to YDJC (UniProt A8MPS7), the log2 fold change is inactive: -0.001.
For ZBTB21 (UniProt Q9ULJ3), the log2 fold change was inactive: 0.028.
